# Experimental data published in the supplement of paper PMC6411743.
# Sequences of proteins named here, by UniProt entry; tags and fusion partners are left off. A change or cut given only in a name is not applied to a line headed by its entry.
# UniProt P28715: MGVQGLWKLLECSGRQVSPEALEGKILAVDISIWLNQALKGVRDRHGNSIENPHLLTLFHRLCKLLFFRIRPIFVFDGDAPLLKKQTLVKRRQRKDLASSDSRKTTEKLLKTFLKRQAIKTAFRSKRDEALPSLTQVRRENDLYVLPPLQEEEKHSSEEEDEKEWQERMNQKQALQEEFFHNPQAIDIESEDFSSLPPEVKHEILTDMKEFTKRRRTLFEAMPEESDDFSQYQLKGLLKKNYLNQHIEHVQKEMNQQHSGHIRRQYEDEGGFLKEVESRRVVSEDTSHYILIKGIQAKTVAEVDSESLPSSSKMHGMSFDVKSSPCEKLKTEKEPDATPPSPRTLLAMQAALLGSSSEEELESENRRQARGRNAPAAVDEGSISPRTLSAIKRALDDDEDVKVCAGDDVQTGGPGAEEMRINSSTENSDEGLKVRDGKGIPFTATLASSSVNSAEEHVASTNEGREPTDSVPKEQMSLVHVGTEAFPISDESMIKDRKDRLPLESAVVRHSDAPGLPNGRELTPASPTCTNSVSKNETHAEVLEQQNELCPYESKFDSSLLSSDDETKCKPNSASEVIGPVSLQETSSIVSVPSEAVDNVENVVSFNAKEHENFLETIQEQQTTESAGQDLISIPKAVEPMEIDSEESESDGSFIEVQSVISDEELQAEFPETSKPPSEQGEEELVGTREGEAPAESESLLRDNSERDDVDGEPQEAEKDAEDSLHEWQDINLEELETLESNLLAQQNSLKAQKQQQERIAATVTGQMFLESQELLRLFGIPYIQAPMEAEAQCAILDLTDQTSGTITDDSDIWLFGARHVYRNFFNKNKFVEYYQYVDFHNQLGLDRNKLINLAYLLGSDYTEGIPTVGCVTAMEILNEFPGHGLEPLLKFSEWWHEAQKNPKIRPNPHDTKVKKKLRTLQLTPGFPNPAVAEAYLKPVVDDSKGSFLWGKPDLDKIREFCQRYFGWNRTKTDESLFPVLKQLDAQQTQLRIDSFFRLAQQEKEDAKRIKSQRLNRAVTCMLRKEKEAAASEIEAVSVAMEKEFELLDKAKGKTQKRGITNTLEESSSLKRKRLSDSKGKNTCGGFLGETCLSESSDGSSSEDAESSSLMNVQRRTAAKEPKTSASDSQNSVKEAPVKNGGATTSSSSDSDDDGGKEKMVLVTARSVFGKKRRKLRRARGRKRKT
# UniProt Q8NCP5: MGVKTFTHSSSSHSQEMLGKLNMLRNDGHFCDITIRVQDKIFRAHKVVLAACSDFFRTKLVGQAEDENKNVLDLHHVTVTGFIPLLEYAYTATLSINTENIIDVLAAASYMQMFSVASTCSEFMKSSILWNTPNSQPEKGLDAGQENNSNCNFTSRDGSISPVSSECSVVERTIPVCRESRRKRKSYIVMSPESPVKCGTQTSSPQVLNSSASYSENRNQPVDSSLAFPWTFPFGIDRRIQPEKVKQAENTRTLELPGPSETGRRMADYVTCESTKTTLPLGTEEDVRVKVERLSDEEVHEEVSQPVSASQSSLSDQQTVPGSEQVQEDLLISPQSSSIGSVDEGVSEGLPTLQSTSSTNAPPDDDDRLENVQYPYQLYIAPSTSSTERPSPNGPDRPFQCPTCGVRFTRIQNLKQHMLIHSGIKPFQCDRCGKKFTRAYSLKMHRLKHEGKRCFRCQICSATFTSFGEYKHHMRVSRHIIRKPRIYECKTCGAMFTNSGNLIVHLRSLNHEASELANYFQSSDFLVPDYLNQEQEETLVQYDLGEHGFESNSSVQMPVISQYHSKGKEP
# UniProt Q96T37: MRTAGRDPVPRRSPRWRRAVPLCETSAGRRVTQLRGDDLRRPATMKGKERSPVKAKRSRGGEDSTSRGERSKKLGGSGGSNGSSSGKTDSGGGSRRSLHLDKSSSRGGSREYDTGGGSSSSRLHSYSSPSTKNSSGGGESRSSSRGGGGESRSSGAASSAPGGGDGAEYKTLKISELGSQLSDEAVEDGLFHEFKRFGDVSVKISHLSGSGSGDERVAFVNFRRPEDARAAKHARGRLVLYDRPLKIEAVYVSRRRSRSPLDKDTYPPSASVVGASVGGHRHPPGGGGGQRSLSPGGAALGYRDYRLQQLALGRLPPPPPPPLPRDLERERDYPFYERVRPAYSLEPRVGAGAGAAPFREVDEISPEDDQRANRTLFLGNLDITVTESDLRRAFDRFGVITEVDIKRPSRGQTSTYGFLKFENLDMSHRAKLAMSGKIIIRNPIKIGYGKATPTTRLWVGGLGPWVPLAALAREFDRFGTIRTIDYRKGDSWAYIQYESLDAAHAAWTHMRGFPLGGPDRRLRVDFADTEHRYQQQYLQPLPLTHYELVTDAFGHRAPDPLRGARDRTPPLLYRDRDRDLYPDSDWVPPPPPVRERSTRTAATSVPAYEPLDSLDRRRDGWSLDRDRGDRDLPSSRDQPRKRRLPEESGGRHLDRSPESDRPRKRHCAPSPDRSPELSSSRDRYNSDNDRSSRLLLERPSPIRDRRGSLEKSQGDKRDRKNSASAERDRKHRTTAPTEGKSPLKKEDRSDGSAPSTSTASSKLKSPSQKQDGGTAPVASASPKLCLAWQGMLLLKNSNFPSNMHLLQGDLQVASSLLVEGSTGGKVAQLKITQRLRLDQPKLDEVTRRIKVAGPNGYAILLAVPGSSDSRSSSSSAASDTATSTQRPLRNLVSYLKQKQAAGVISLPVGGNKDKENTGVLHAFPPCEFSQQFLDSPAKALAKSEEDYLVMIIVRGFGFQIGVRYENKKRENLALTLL
# UniProt Q14241: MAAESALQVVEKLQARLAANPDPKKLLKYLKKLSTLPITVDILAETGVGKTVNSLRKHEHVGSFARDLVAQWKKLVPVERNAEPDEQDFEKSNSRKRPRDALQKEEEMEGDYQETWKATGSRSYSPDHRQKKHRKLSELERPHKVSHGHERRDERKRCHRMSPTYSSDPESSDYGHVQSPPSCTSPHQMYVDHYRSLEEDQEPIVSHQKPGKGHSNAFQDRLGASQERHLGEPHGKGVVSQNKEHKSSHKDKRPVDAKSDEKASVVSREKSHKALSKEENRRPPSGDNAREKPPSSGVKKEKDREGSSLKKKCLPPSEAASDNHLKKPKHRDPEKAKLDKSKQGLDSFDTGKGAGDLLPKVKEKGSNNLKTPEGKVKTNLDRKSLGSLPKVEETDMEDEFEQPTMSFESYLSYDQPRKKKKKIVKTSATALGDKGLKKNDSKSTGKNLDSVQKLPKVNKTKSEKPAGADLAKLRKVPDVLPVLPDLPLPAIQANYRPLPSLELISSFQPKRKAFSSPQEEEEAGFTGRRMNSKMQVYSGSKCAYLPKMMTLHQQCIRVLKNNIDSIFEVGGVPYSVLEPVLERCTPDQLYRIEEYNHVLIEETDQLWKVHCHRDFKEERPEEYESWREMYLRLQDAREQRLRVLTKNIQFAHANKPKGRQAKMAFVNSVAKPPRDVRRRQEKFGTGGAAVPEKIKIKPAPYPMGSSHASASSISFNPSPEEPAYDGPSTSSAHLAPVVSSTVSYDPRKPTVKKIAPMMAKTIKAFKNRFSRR
# UniProt Q9H0W9: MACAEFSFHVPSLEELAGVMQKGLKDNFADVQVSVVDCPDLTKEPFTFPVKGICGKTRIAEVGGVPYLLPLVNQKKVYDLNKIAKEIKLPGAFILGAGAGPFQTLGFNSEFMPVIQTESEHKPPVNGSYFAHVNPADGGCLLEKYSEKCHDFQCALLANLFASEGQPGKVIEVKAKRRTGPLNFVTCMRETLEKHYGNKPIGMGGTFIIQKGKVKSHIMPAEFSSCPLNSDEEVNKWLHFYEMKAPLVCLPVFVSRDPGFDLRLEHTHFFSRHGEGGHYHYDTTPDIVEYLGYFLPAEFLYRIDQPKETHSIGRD
# ± gives the standard deviation of the averaged measurements. Some of the results follow.
# Compound: Nc1nc2c(ncn2[C@@H]2O[C@H](COP(=O)(O)OP(=O)(O)OP(=O)(O)O)[C@@H](O)[C@H]2O)c(=O)[nH]1 [guanosine triphosphate]
# Experiment: NP40-soluble protein abundance relative to vehicle (solubility fold change) (ratio); higher = more soluble protein in presence of GTP
# Experimental: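 Solubility proteome profiling in Jurkat crude lysate. Lysate was treated with Mg-GTP (0.1-10 mM) for 10 min at room temperature and 3 min at 37 °C, then solubilised with 0.8% NP40 and benzonase, followed by ultracentrifugation. Proteins were quantified by TMT10 LC-MS/MS; the value is the NP40-soluble abundance relative to the NP40-processed vehicle, from 3 independent experiments.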
Target,NP40-soluble protein abundance (concentration: 0.1mM),NP40-soluble protein abundance (concentration: 0.5mM),NP40-soluble protein abundance (concentration: 1mM),NP40-soluble protein abundance (concentration: 2mM),NP40-soluble protein abundance (concentration: 4mM),NP40-soluble protein abundance (concentration: 6mM),NP40-soluble protein abundance (concentration: 8mM),NP40-soluble protein abundance (concentration: 10mM)
A0A087WUH0|P28715 (UniProt P28715),1.06 ± 0.018,1.04 ± 0.017,1.052 ± 0.0099,1.04 ± 0.038,1.05 ± 0.027,1.04 ± 0.019,1.08 ± 0.075,1.05 ± 0.039
A0A087WV65|H0YEM9 and related entries (UniProt Q8NCP5),1.06 ± 0.046,0.962 ± 0.021,1.02 ± 0.014,1.06 ± 0.05,1.17 ± 0.039,1.14 ± 0.076,1.31 ± 0.11,1.13 ± 0.074
A0A087WWP4|Q96T37 and related entries (UniProt Q96T37),1 ± 0.044,0.989 ± 0.033,1.01 ± 0.053,1.03 ± 0.048,1.04 ± 0.046,1.06 ± 0.046,1.07 ± 0.059,1.08 ± 0.049
A0A024RAC6 (UniProt Q14241),0.949 ± 0.023,0.948 ± 0.023,1.04 ± 0.021,1.08 ± 0.028,1.1 ± 0.04,1.16 ± 0.041,1.2 ± 0.038,1.26 ± 0.043
A0A087WT99|Q9H0W9 and related entries (UniProt Q9H0W9),0.993 ± 0.094,0.942 ± 0.069,0.925 ± 0.048,0.899 ± 0.068,0.872 ± 0.058,0.897 ± 0.087,0.901 ± 0.11,0.848 ± 0.053
